For the data set the following is noted: shunt catheter of 50/50 blend of 57 and 44 durometer material, loaded from chloroform, steam sterilized.

For the molecule `CCC[C@@H]1C[C@@H](C(=O)N[C@@H]([C@H]2O[C@H](SC)[C@H](O)[C@@H](O)[C@H]2O)[C@H](C)Cl)N(C)C1` [Clindamycin, clindamycin], the “degradation by steam sterilization” value is on record as “about 10%”.
